At least one compound was matched to its structure with a doubt left.
Tests used:
[1] = tested on: Collagen antibody-induced arthritis; experiment: MAB model (collagen antibody-induced arthritis); assay type: in vivo, mouse; conditions: 30 mg/kg p.o., DBA/J mice
Protocol: The MAB model allows a rapid assessment of the modulation of an RA-like inflammatory response by therapeutics ([…]. Nature Protocols (2006) 2512-2516: Collagen antibody-induced arthritis). DBA/J mice were injected i.v. with a cocktail of mAbs directed against collagen II. One day later, compound treatment was initiated (vehicle: 10% (v/v) HPβCD). Three days later, mice received an i.p. LPS injection (50 μg/mouse), resulting in a fast onset of inflammation. Compound treatment was continued until 10 days after the mAb injection. Inflammation was read by measuring paw swelling and recording the clinical score of each paw. The cumulative clinical arthritis score of four limbs was presented to show the severity of inflammation. A scoring system is applied to each limb using a scale of 0-4, with 4 being the most severe inflammation. • 0 Symptom free • 1 Mild, but definite redness and swelling of one type of joint such as the ankle or wrist, or apparent redness and swelling limited to individual digits, regardless of the number of affected digits • 2 Moderate redness and swelling of two or more types of joints • 3 Severe redness and swelling of the entire paw including digits • 4 Maximally inflamed limb with involvement of multiple joints

[2] = tested on: Collagen Induced Arthritis (CIA); experiment: Rat CIA model; assay type: in vivo; conditions: therapeutic dosing day 16 to day 30, p.o., statistical significance in several of the readouts
Protocol: Completed Freund's adjuvant (CFA) and incomplete Freund's adjuvant (IFA) were purchased from Difco. Bovine collagen type II (CII), lipopolysaccharide (LPS), and Enbrel were obtained from Chondrex (Isle d'Abeau, France); Sigma (P4252, L'Isle d'Abeau, France), Whyett (25 mg injectable syringe, France) Acros Organics (Palo Alto, Calif.), respectively. All other reagents used were of reagent grade and all solvents were of analytical grade.
Dark Agouti rats (male, 7-8 weeks old) were obtained from Harlan Laboratories (Maison-Alfort, France). Rats were kept on a 12 hours light/dark cycle (0700-1900). The temperature was maintained at 22° C., and food and water were provided ad libitum.
One day before the experiment, CII solution (2 mg/mL) was prepared with 0.05 M acetic acid and stored at 4° C. Just before the immunization, equal volumes of adjuvant (IFA) and CII were mixed by a homogenizer in a pre-cooled glass bottle in an ice water bath. Extra adjuvant and prolonged homogenization might be required if an emulsion is not formed. […]
Arthritis was scored according the method of Khachigian 2006, Lin et al 2007 and Nishida et al. 2004. […]
Clinically, body weight loss is associated with arthritis (Shelton et al., 2005; Argiles et al., 1998; Rall, 2004; Walsmith et al., 2004). […] The change in body weight (%) after onset of arthritis was calculated as follows: […]

O=C(Nc1nc2cccc(-c3ccc(OCc4cccnc4)cc3)n2n1)C1CC1 [Compound 36, N-(5-(4-(pyridin-3-ylmethoxy)phenyl)-[1,2,4]triazolo[1,5-a]pyridin-2-yl)cyclopropanecarboxamide]
clinical score [1]: reduced the clinical score with statistical significance | inflammation [1]: significantly reduced inflammation

O=C(Nc1nc2cccc(-c3ccc(OCc4ccccn4)cc3)n2n1)C1CC1 [Compound 37, N-(5-(4-(pyridin-2-ylmethoxy)phenyl)-[1,2,4]triazolo[1,5-a]pyridin-2-yl)cyclopropanecarboxamide]
efficacy in all readouts of the rat CIA study [2]: efficacious in all readouts | clinical score [1]: reduced the clinical score with statistical significance | inflammation [1]: significantly reduced inflammation
